Experimental data from US20020151459A1, “Methods for identifying compounds useful for inhibiting farnesyl diphosphate synthase” (Merck & Co., Inc., priority 2000, published 2002).
Where two headings read alike, the source gives them in different places.

System: other enzymes in the mevalonate pathway (conversion of MVA to GGPP)
Settings: high micromolar concentrations, enzymes converting MVA to GGPP other than FPP synthase

NCCCC(O)(P(=O)(O)O)P(=O)(O)O [alendronate, 4-amino-1-hydroxybutylidene-1,1-bisphosphonic acid monosodium trihydrate]
inhibition of any other enzyme in the mevalonate pathway (in words) (listed as alendronate monosodium trihydrate): do not inhibit | inhibition of any other enzyme in the mevalonate pathway (in words) (monosodium trihydrate): does not inhibit
